## Microarray screen: hit calls

From ROBIN, a set of small-molecule microarray screens (doi:10.1002/anie.202211358).

Targets, with sequences 5′ to 3′:
SAM-II: SAM-II riboswitch RNA pseudoknot, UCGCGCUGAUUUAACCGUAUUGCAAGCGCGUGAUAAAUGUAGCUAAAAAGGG. About 200 hits among about 21,000 compounds.
PreQ1: PreQ1 riboswitch RNA pseudoknot, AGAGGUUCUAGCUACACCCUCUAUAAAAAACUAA. From B. subtilis. About 170 hits among about 24,000 compounds.
TPP: TPP riboswitch RNA three-way junction, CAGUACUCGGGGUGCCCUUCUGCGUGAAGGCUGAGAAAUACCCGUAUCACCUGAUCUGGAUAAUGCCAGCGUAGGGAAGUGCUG. About 160 hits among about 24,000 compounds.

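The test is a small-molecule microarray: each compound is printed twice on a reactive slide, and binding shows as fluorescence of the labelled oligonucleotide after washing. For the PreQ1, TPP and SAM-II riboswitches the laboratory earlier reported (doi:10.1038/s41467-019-09493-3) 1 µM RNA, 2 h, and a rule that included a mean Z-score above 3 (spot signal-to-noise against the whole library), a score well above that on a control array, and duplicate spots agreeing (coefficient of variation under 100). The data file gives only the calls; its cut-offs may differ, and compounds hitting several targets are kept. These are primary screening calls, not affinities; a compound without a hit may have attached poorly or may still bind in solution.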
“hit” means called a hit, “no hit” means screened and not called a hit.
The compounds are a random part of those screened.
A target missing from an entry has no call listed here.
A dash means that no call is listed here.

| compound | SAM-II | PreQ1 | TPP |
|---|---|---|---|
| `COCc1n[nH]c(N)c1-c1ccc(OC)cc1` | no hit | no hit | no hit |
| `CC1(C)C=Cc2c(nc3ccccc3c2N)C1.Cl` | no hit | no hit | no hit |
| `Cc1ccc2c(CNCCc3cccs3)c(C(=O)O)n(C)c2c1` | - | no hit | no hit |
| `Cn1nc(CO)c2c1CCN(c1cc(-c3ccccc3)nc3ccnn13)C2` | no hit | no hit | no hit |
| `COCCNc1nc2c(c(=O)n(C)c(=O)n2C)n1Cc1ccccc1` | no hit | no hit | no hit |
| `CC1(C)CC(CCN)(c2ccccc2)CCO1` (configuration not stated) | no hit | no hit | no hit |
| `N[C@@H]1CC[C@@H]1NC(=O)CC(c1ccccc1)c1ccccc1` | no hit | no hit | no hit |
| `Nc1c(-c2ccc(F)cc2)nnn1-c1ccccc1F` | no hit | no hit | no hit |
| `Nc1nc(N)c2cnnn2n1` | no hit | no hit | no hit |
| `CN1CCN(Cc2cc(C#N)n(C)c2)CC12CCC(=O)N(CCO)CC2` (configuration not stated) | no hit | no hit | no hit |
| `O=C(NCc1ccc(F)cc1)c1nn(-c2ccc(Cl)cc2)nc1CO` | - | no hit | no hit |
| `Nc1cccc(-c2nn3cnnc3s2)c1` | no hit | no hit | no hit |
| `CCNC(=O)C1=C(c2ccc(CN3CCOCC3)cc2)C(=C2C=C(C(C)C)C(O)=CC2=O)ON1` | no hit | no hit | no hit |
| `O=S(=O)(O)c1ccc(/N=N/c2ccccc2)cc1` | no hit | no hit | no hit |
| `O=C1c2cccnc2C(Nc2ccc(Br)cc2)N1Cc1cccs1` (configuration not stated) | no hit | no hit | no hit |
| `CCCc1cc(NCC(C)C)n2nc(-c3cccnc3)nc2n1` | - | no hit | no hit |
| `COc1ccc(OC)c(CC(=O)N[C@H]2CC[C@H]2NC2CCCCCC2)c1` | no hit | no hit | no hit |
| `Cc1ccc(Cl)c(NC2=CC(=O)CC(C)(C)C2)c1` | no hit | no hit | no hit |
| `CC(=O)OCC(CCn1cnc2cnc(N)nc21)COC(C)=O` | no hit | no hit | no hit |
| `c1ccc(Nc2c(-c3c[nH]c4ccccc34)nc3cnccn23)cc1` | no hit | no hit | no hit |
| `O=C(c1ccc2c(c1)n(CC1CC1)c(=O)n2C1CCCCC1)N1C[C@H]2CNC[C@H]2C1` | no hit | no hit | no hit |
| `Nc1ncnc2c1ncn2C1OC(CO)C(O)C1N` (configuration not stated) | no hit | no hit | no hit |
| `CC[n+]1cn(CC(O)COc2cccc(OC)c2)c2ccccc21` (configuration not stated) | hit | no hit | no hit |
| `Cc1ccccc1CN(CCO)C(=O)C1CCN(C(=O)C2CCCC2)CC1` | no hit | no hit | no hit |
| `CSc1ccc(C2C(C#N)=C(N)OC3=C2C(=O)CC(C)(C)C3)cc1` (configuration not stated) | no hit | no hit | no hit |
| `COCCNc1nc2c(c(=O)n(C)c(=O)n2C)n1Cc1cccc2ccccc12` | no hit | no hit | no hit |
| `Cc1ccc(Nc2c(-c3ccc(N(C)C)cc3)nc3cnccn23)cc1` | no hit | no hit | no hit |
| `Nc1nnc(CCNC(=O)[C@H]2CNC[C@@H](C(=O)N3CCCC3)C2)s1` | no hit | no hit | no hit |
| `FC(F)(F)c1ccc(Nc2nc3ccc(Oc4ccnc(-c5ncc(C(F)(F)F)[nH]5)c4)cc3[nH]2)cc1` | no hit | no hit | no hit |
| `Cc1nc2nc(-c3ccc(C(C)(C)C)cc3)nn2c(C)c1CC(=O)N(CCO)Cc1ccccc1` | - | no hit | no hit |
| `Nc1nc(N2CCC(n3cc(-c4ccsc4)nn3)CC2)c2nc[nH]c2n1` | no hit | no hit | no hit |
| `CCc1ccccc1NCc1ccc(C(=O)O)s1` | - | no hit | no hit |
| `CCCNC(=O)c1ccc(Cl)cc1Cl` | no hit | no hit | no hit |
| `O=C(Cc1cc(=O)[nH][nH]c1=O)N1CCC(Cc2ccc(CO)cc2)C1` (configuration not stated) | no hit | no hit | no hit |
| `O=C1c2cccc(Oc3ccccc3)c2C(=O)c2cccc(Oc3ccccc3)c21` | no hit | no hit | no hit |
| `Cc1ccc(C)c2c(O)cc(CN(CCO)Cc3cnn(C)c3)nc12` | no hit | no hit | no hit |
| `CC1(C)CC(=O)C2=C(C1)OC(N)=C(C#N)C2C1CCN(C(=O)OCc2ccccc2)CC1` (configuration not stated) | no hit | no hit | no hit |
| `CCOC(=O)N1CCN(c2c(NCCCN3CCCC3)c(=O)c2=O)CC1` | - | no hit | no hit |
| `Cc1ccc(-c2csc(-c3nnn(-c4cccc(Cl)c4)c3N)n2)cc1` | no hit | no hit | no hit |
| `CCC(O)Cn1nc(Cc2ccccc2OC)nc1-c1cn(C)nc1C` (configuration not stated) | no hit | no hit | no hit |
| `Cc1ccc(C)c(Cn2c(C(=O)O)c(CNCc3ccco3)c3ccccc32)c1` | - | no hit | no hit |
| `CCc1ccc(-c2[nH]c3c(C#N)cnn3c2NC2CCCCCC2)cc1` | - | no hit | no hit |
| `Nc1cc(O)nc(SCc2ccc(Cl)cc2Cl)n1` | no hit | no hit | no hit |
| `CNC(=O)c1nc(CN2CCCC(Nc3ccc(C(C)C)cc3)C2)no1` (configuration not stated) | no hit | no hit | no hit |
| `c1cncc(CNc2cccc(-c3nc4ccccc4s3)c2)c1` | no hit | no hit | no hit |
| `CCn1cnnc1CCNC(=O)C1CC2(CCNCC2)CN1` (configuration not stated) | no hit | no hit | no hit |
| `NC(=O)Nc1cc(-c2cccc(F)c2)sc1C(=O)N[C@H]1CCCNC1` | no hit | no hit | no hit |
| `CC(C)(C)c1cc(NCCN2CCOCC2)n2ncc(-c3ccc(Cl)cc3)c2n1` | - | no hit | no hit |
| `Cc1ccc(-c2nc(NCC(C)C)c3ccccc3n2)cc1` | no hit | no hit | no hit |
| `Nc1nnc(SCc2cc(Cl)ccc2Cl)s1` | no hit | no hit | no hit |
| `COC(=O)CN(C)C(=O)c1ccc(NCc2sccc2C)cc1` | no hit | no hit | no hit |

The first 5 entries again:

{"compound": "COCc1n[nH]c(N)c1-c1ccc(OC)cc1", "SAM-II": "no hit", "PreQ1": "no hit", "TPP": "no hit"}
{"compound": "CC1(C)C=Cc2c(nc3ccccc3c2N)C1.Cl", "SAM-II": "no hit", "PreQ1": "no hit", "TPP": "no hit"}
{"compound": "Cc1ccc2c(CNCCc3cccs3)c(C(=O)O)n(C)c2c1", "PreQ1": "no hit", "TPP": "no hit"}
{"compound": "Cn1nc(CO)c2c1CCN(c1cc(-c3ccccc3)nc3ccnn13)C2", "SAM-II": "no hit", "PreQ1": "no hit", "TPP": "no hit"}
{"compound": "COCCNc1nc2c(c(=O)n(C)c(=O)n2C)n1Cc1ccccc1", "SAM-II": "no hit", "PreQ1": "no hit", "TPP": "no hit"}